Test results: PubChem BioAssay AID624297 (National Center for Advancing Translational Sciences (NCATS), 2012)
Where “and” joins values, the source holds several entries; their conditions need not be identical. Equal values may be shown once. Screen size: about 340,000 compounds; about 6,200 (1.8%) were called active. This list was built around the results that the source calls inconclusive (neither active nor inactive); the mix of calls is not that of the screen. The call rests on the fitted dose curve; in most records, active means well fitted activation curve with a large enough effect; inconclusive means small, poorly fitted or top-dose-only effect; inactive means no such curve, though single readings can be large or run the other way. Potencies of inconclusive entries are doubtful fits and often do not repeat.

Assay: A quantitative high throughput screen for small molecules that induce DNA re-replication in SW480 colon adenocarcinoma cells. Further: nearly all actives have a fitted effect of over 55% in size. On re-replication activation: % of control where 0% means no effect.
Settings: Hoechst DNA content imaging, 48 h; re-replication activation: at 46.1 µM (top of the series) unless noted
Summary of the method: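 Per well, 250 cells were exposed to pinned compound for 48 hr. Nuclear DNA was visualised with Hoechst (40 min, 37 C) and total object intensity recorded by fluorescence scanning.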
Potency means the concentration at half of the fitted maximal effect.

SMILES	re-replication activation	Potency
O=C(CCC(=O)N(CC(=O)NC1CCCC1)Cc1ccc(F)cc1)Nc1nccs1	inactive: 0.05%	–
Cc1sc(NC(=O)Cc2ccc3c(c2)OCO3)nc1-c1ccc2c(c1)CCN2C(=O)c1cccc(F)c1	inactive: -7.93%	–
O=C(N/N=C/c1ccc2cccnc2c1)c1nc2ccccc2c(=O)[nH]1	–	inconclusive: 9.2 µM [activator, partial curve, poor fit]
Cc1nc2sc(C(=O)c3ccccc3)c(N)c2c(C)c1C	inactive: 0.774%	–
O=C(NCC(c1ccco1)N1CCCC1)c1cn(-c2ccccc2)nc1-c1ccc(F)cc1 (stereo unspecified)	–	inconclusive: 20.6 µM [activator, single point]
COc1ccc(OC)c(C2=NOC(C(=O)NCc3ccco3)C2)c1 (stereo unspecified)	–	inconclusive: 20.6 µM [activator, single point]
Cc1ccc(-c2nc3ccccc3s2)cc1NC(=O)c1ccc2c(c1)OCO2	–	inconclusive: 23.1 µM [activator, single point]
Cc1cc2cc(C(c3nnnn3CC3CCCO3)N3CCCc4ccccc43)c(=O)[nH]c2cc1C (stereo unspecified)	–	inconclusive: 20.6 µM [activator, partial curve]
Cc1c([N+](=O)[O-])cc(C(=O)Nc2ccc3ncccc3c2)cc1[N+](=O)[O-]	–	inconclusive: 29.1 µM [activator, single point]
[O-]/[N+](=N\Nc1ccc(Cl)cc1)c1ccccc1	inactive: -0.0195%	–
CN1CCCC(CN2c3ccccc3Sc3ccccc32)C1 (stereo unspecified)	–	inconclusive: 29.9 µM [activator, partial curve, poor fit] and inconclusive: 1.41 µM [activator, partial curve, poor fit]
COc1cc(C(=O)Nc2cccc3cccnc23)cc(OC)c1OC	inactive: -7.18%	–
O=C(NN=C1CCCC1)c1ccccc1OCc1ccc(Cl)cc1	inactive: -5.11%	–
Cc1ccc(Sc2nc(-c3ccccc3)nnc2C(F)(F)F)cc1	–	inconclusive: 13 µM [activator, partial curve]
CC(=O)N1CCC2(CC1)C(C#N)=C(N)Oc1n[nH]c(C(F)(F)F)c12	–	inconclusive: 3.66 µM [activator, single point]
N#Cc1sc(=O)[nH]c1Cl	–	inconclusive: 4.11 µM [activator, partial curve, poor fit]
Cc1cccc(N2C(=O)C(Oc3ccc(Cl)cc3Cl)C2C(=O)O)c1C (stereo unspecified)	inactive: -4.74%	–
Cc1ccc2[nH]c3c(c2c1)CN(C(C)C)CC3	inactive: 2.16%	–
CC1=C[C@@H](O)CC(C)(C)[C@@H]1/C=C/C(C)=C/C=C/C(C)=C/C=C/C=C(C)/C=C/C=C(C)/C=C/C1=C(C)C[C@H](O)CC1(C)C	–	inconclusive: 15 µM [activator, full curve]
OC(COc1ccc(Cl)cc1)CN1C2=NCCCN2c2ccccc21 (stereo unspecified)	–	inconclusive: 25.9 µM [activator, partial curve, poor fit]
COc1ccc(S(N)(=O)=O)cc1C(=O)OCCCC(=O)c1ccccc1	–	inconclusive: 0.0046 µM [activator, full curve, poor fit]
CN(CC(=O)Nc1cccc(F)c1)C(=O)c1cccc(S(=O)(=O)N2CCN(c3ccc(F)cc3)CC2)c1	inactive: -23.5%	–
COc1cc(CC(=O)N2CCN(S(=O)(=O)c3ccc(C)cc3)CC2)cc(OC)c1OC	inactive: -0.966%	–

Rewritten bar-delimited: two of the compounds above.
SMILES | re-replication activation | Potency
Cc1sc(NC(=O)Cc2ccc3c(c2)OCO3)nc1-c1ccc2c(c1)CCN2C(=O)c1cccc(F)c1 | inactive: -7.93% | –
O=C(N/N=C/c1ccc2cccnc2c1)c1nc2ccccc2c(=O)[nH]1 | – | inconclusive: 9.2 µM [activator, partial curve, poor fit]

Additional structures:

SMILES	re-replication activation	Potency
CN(C)CCCN(C(=O)COc1ccc(Cl)cc1)c1nc2ccc(F)cc2s1	inactive: 11.9%	–
Cc1ccc(NC(=O)c2nc(S(=O)(=O)Cc3ccccc3C)ncc2Cl)cc1C	–	inconclusive: 1.84 µM [activator, full curve]
Cc1ccc(C)c(N2CCN(C(c3ccc(N(C)C)cc3)c3nnnn3C(C)(C)C)CC2)c1 (stereo unspecified)	inactive: -2.27%	–
COc1cccc(NC(=O)c2nnn(CC(=O)Nc3cc(C)cc(C)c3)c2N)c1	–	inconclusive: 23.1 µM [activator, single point]
O=C(CCn1cccn1)N1CCCC(N2CCN(c3cccc(Cl)c3)CC2)C1 (stereo unspecified)	inactive: -1.04%	–
CCc1nnc(SCc2ccc(C(=O)OC)o2)n1N	inactive: -0.057%	–
CCOc1cc(CNc2ccccc2)cc(Br)c1OCC(=O)NC(C)(C)C	–	inconclusive: 29.1 µM [activator, single point]
O=C(CSc1nnc(CNC(=O)c2ccco2)o1)Nc1cccc(F)c1	inactive: -20.7%	–
C=CCOc1c(OC)cc(/C=N/Nc2cccc(C(=O)O)c2)c(Br)c1Br	–	active: 2.06 µM
NC(=S)N=Nc1c(O)[nH]c2c(Br)cc(Br)cc12	–	inconclusive: 18.4 µM [activator, single point]
CSCC[C@H](NC(=O)COc1ccc(Cl)cc1)c1nc2ccccc2[nH]1	–	inconclusive: 0.731 µM [activator, full curve, poor fit]
COc1c(Cl)cc(-c2noc(C)c2C(=O)NCCc2ccc(C)cc2)cc1Cl	–	inconclusive: 1.64 µM [activator, full curve, poor fit]
CCOc1ccccc1N1CCN(C(=O)c2cc(-c3cc(OC)ccc3OC)nc3ccccc23)CC1	–	inconclusive: 20.6 µM [activator, single point]
O=S(=O)(NCCc1ccccc1)c1cccc2nsnc12	–	inconclusive: 3.26 µM [activator, full curve]
Cc1ccc(Cl)c(NC(=O)COC(=O)c2ccccc2C(=O)c2ccc(Cl)c([N+](=O)[O-])c2)c1Cl	–	active: 3.66 µM
Cc1ccc(C)c(-c2csc(NC(=O)c3cnccn3)n2)c1	inactive: -2.19%	–
CCOC(=O)c1c(CN(CC)CC)oc2cc(Br)c(O)cc12	–	inconclusive: 14.6 µM [activator, partial curve, poor fit]
O=C(N/N=C1\CCc2ccccc21)c1ccccc1O	inactive: 1.73%	–
CCSc1cc(C)nc2c(-c3ccccc3)c(C)nn12	inactive: -3.32%	–
CCOc1ccc(CSC(=N)N)cc1	inactive: -6.09%	–
O=C(OCC(=O)N1CCC(c2ccccc2)=N1)c1ccc([N+](=O)[O-])s1	–	inconclusive: 29.1 µM [activator, single point]
CCOC(=O)C(NC(=O)c1cccc(Cl)c1)(OCc1ccc(F)cc1)C(F)(F)F (stereo unspecified)	inactive: -2.9%	–
COc1ccc2c(c1)CC/C(=C/c1ccncc1)C2=O	–	inconclusive: 16.4 µM [activator, single point]
